The other results are listed elsewhere or left out.
These compounds were tested on T1, CTL2-GFP (C. trachomatis L2/434/Bu, GFP-expressing). Settings: bulk GFP, single well; 28.5 h, 10 µM; inhibitor.
T1 construct: L2/434/Bu, GFP-expressing
Parameters: species or system HeLa; Intracellular C. trachomatis growth in HeLa cells, bulk GFP fluorescence relative to DMSO

Row | SMILES | % of control remaining
1 | COc1ccc(C2(NC(=O)c3cnn(C)c3C)CCCCC2)cc1 [CBK283731] | 124.43%
2 | O=C(NCc1ccccc1Cl)N(Cc1cccc(Cl)c1)CC1CCNCC1 [CBK049762] | 79.1991%
3 | O=C(Nc1nc2c(s1)CCc1ccccc1-2)C1CC1 [CBK287330] | 144.519%
4 | O=C(N[C@@H]1COCC[C@@H]1OCC1CC1)c1cccc2c1NCCC2 [CBK307227] | 104.575%
5 | CC12CCC(=O)N1CCCN2Cc1cnn(-c2ccc(F)cc2)c1 (stereo not shown) [CBK281819] | 129.006%
6 | CCCNC(=O)Cc1sccc1NS(=O)(=O)c1ccc(C)cc1 [CBK038118] | 127.231%
7 | OC1(c2cccnc2)CCCN(Cc2ccccc2F)CC1 (stereo not shown) [CBK283009] | 122.929%
8 | CC1(C(=O)O)CCC(C(=O)Nc2ccc(F)cc2)C1(C)C (stereo not shown) [CBK286953] | 112.079%
9 | CC(C)(C)OC(=O)NCC1CCC(C(=O)O)CC1 (stereo not shown) [CBK278598] | 125.907%
10 | CN(c1ccccc1)S(=O)(=O)c1ccc(C(=O)NCc2cccnc2)cc1 [CBK297522] | 126.734%
11 | CCC(=O)N1CCC(c2cc(C(F)(F)F)n3nc(C)cc3n2)CC1 [CBK284367] | 105.558%
12 | COc1cccc2ncn(CCCn3cccn3)c(=O)c12 [CBK307094] | 119.735%
13 | CN1CCN(c2cncc(-c3ccccc3CO)n2)CC1 [CBK065302] | 169.232%
14 | COc1ccc(-n2c(S)nnc2-c2cc(C(C)(C)C)n[nH]2)cc1 [CBK269071] | 147.672%
15 | O=C(Cc1ccsc1)N1CCCC1c1nc2ccccc2[nH]1 (stereo not shown) [CBK283740] | 128.205%
16 | CC(=O)Nc1ccc(N2CC34C=CC(O3)C(C(=O)O)C4C2=O)cc1 (stereo not shown) [CBK287020] | 119.455%
17 | O=C1CC(C(=O)O)SC(NNC(=O)c2ccccc2)=N1 (stereo not shown) [CBK267944] | 138.97%
18 | CCN(CC)CCn1c(-c2ccccc2)c(OCCO)c2ccccc2c1=O [CBK010078] | 106.853%
19 | COc1ccc2[nH]cc(C3CCN(C(=O)c4cc(C#N)c[nH]4)CC3)c2c1 [CBK305479] | 115.04%
20 | CC(=O)N1CCC2(C/C=C/C[C@H]3CN(CC(N)=O)CC[C@H]3NC(=O)CNC2=O)CC1 [CBK292148] | 101.247%

Row | SMILES | % of control remaining
21 | CN1CCN(Cc2nc3c(c(=O)n(C)c(=O)n3C)n2Cc2c(F)cccc2Cl)CC1 [CBK269179] | 179.445%
22 | CCc1nc2ccc(C(=O)NCCCN3CCCC3=O)cn2c1N(C)Cc1cccs1 [CBK145536] | 149.262%
23 | O=c1[nH]c(=O)n(Cc2cccnc2)c2nc[nH]c12 [CBK291260] | 111.029%
24 | COc1cc(OC)c(NS(=O)(=O)c2ccc(C(=O)O)cc2)cc1Cl [CBK296620] | 112.591%
25 | CC(C)CCCC(=O)n1ccn(-c2ccc(N(C)C)cc2)c1=O [CBK106603] | 118.132%
26 | Cn1cncc1CN1C2CCC1CC(O)(c1ccccc1F)C2 (stereo not shown) [CBK282649] | 111.43%
27 | CC(=O)Nc1ccc(Nc2ncnc3c2cnn3-c2ccc(C)cc2C)cc1 [CBK265803] | 134.157%
28 | COCC(=O)N1CCc2sccc2C1c1ccc(NCc2ccccc2F)cc1 (stereo not shown) [CBK286446] | 124.683%
29 | O=C(OCCc1ccncc1)N1CCCC(F)(F)C1 [CBK200157] | 179.604%
30 | Cn1cc(CCCNC(=O)c2cccc(CN3CCCCCC3)c2)cn1 [CBK306906] | 116.404%
31 | COC(=O)c1ccccc1NC(=O)NCc1cc(C)n(C)n1 [CBK266887C] | 108.666%
32 | CC(=O)N(C)[C@H]1CC[C@]2(CC1)CNC(=O)c1ccccc1O2 [CBK281682] | 95.9991%
33 | CC(=O)Nc1nc(NC(C)=O)n2c(-c3ccccc3)nnc2n1 [CBK026649] | 123.566%
34 | CC(=O)c1ccc(NC(=O)NC[C@H]2C[C@@H]3CC[N@]2C[C@@H]3CN2CCN(C)CC2)cc1 [CBK288768] | 77.6672%
35 | O=C(O)C1CSC(c2cccnc2)N1 (stereo not shown) [CBK260910] | 115.31%
36 | N#CCCCN1CCC(Oc2nccnc2OCc2cccc(Cl)c2)CC1 [CBK153642] | 117.421%
37 | CC(C)Nc1cc(OCc2cccnc2)ncn1 [CBK115883] | 110.864%
38 | COC(=O)c1sccc1NS(=O)(=O)c1ccc(C(F)(F)F)cc1 [CBK200041] | 110.564%
39 | CCOC(=O)c1c(C#N)c(SCc2ccc(Cl)cc2)nc2c1CN(CC)CC2 [CBK021337] | 93.1588%
40 | Cc1[nH]nc(Nc2cccc(C(=O)O)c2)c1[N+](=O)[O-] [CBK262725] | 126.537%

As entered above.
% of control remaining, COC(=O)c1ccccc1NC(=O)NCc1cc(C)n(C)n1 [CBK266887C] is entered as 108.666%
% of control remaining, COc1cc(OC)c(NS(=O)(=O)c2ccc(C(=O)O)cc2)cc1Cl [CBK296620] is entered as 112.591%

Reference: PMC12040169 (PLOS Biology, 2025)
